Data: article PMC3260166, “HspB2/Myotonic Dystrophy Protein Kinase Binding Protein (MKBP) as a Novel Molecular Chaperone: Structural and Functional Aspects” (PLoS ONE, 2012)
No constants are given. Whether binding was seen depends on the method and setting. Some results given as binding are weak or reduced against the parent protein; the word gives no strength.

Target: T1, citrate synthase (UniProt P00889)
T1 sequence: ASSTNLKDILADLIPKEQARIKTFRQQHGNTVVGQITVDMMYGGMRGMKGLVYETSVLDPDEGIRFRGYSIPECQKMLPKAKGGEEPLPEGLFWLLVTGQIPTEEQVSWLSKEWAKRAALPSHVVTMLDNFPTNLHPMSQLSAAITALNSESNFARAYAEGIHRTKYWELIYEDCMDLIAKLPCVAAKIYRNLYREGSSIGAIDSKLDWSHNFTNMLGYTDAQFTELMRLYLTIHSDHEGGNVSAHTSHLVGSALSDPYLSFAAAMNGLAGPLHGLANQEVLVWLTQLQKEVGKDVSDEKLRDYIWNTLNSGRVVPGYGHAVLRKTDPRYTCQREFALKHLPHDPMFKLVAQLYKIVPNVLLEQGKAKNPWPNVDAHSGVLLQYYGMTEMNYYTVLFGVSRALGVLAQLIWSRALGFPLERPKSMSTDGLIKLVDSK
Assay: co-sedimentation; citrate synthase (25 µg/ml) heated at 43°C in 40 mM HEPES-KOH pH 7.5 with HspB2 at various w/w ratios; centrifuged at the end of the chaperone assay, soluble and precipitate fractions on SDS-PAGE; both purified

binding: binds
B1: human HspB2 / Myotonic Dystrophy Protein Kinase Binding Protein (MKBP) (natural protein, UniProt Q16082 1-182, looked up)
chain: MSGRSVPHAHPATAEYEFANPSRLGEQRFGEGLLPEEILTPTLYHGYYVRPRAAPAGEGSRAGASELRLSEGKFQAFLDVSHFTPDEVTVRTVDNLLEVSARHPQRLDRHGFVSREFCRTYVLPADVDPWRVRAALSHDGILNLEAPRGGRHLDTEVNEVYISLLPAPPDPEEEEEAAIVEP
notes: HspB2 (MKBP), human; The reverse primer carries the stop codon (TCA), so the C-terminal His tag of pET21a is probably not translated; also called MKBP/HspB2; source: E. coli BL21 DE3, purified (20% ammonium sulfate precipitation, Phenyl Sepharose)
